# Primary screen of a compound library

Sequences of proteins named here, by UniProt entry; tags and fusion partners are left off.
UniProt E9BF75, entry or part of it: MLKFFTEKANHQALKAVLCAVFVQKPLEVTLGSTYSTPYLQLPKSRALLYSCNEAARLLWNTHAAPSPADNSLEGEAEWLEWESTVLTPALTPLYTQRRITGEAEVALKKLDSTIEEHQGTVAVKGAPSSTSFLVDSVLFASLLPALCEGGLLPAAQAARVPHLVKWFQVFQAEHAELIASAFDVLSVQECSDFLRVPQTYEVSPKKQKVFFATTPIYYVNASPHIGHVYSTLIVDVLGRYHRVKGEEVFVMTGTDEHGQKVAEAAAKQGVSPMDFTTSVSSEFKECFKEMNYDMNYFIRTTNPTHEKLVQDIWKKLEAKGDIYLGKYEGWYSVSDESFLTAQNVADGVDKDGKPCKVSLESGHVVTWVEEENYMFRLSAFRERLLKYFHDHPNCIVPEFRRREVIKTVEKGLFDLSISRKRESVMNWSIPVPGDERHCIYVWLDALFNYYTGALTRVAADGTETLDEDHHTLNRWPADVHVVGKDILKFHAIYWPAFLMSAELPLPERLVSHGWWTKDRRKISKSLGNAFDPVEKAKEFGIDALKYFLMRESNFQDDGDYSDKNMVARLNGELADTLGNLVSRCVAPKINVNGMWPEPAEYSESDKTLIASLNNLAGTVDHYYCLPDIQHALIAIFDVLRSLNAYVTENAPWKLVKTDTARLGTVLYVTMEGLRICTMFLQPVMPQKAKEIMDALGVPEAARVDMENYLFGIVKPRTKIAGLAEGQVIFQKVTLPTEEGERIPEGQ

The values are deposited in ChEMBL (CHEMBL3988442, “University of Dundee, Small-Polar-MMV Screening Library” (2021)).

All values are in %. The controls that fix the scale are not given in the record; negative values are as filed. This is an unselected part of the compounds tested.

LdMetRS: 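Primary screen of methionyl-tRNA synthetase; the read-out is not stated. Target: Methionyl-tRNA synthetase (putative), Leishmania donovani (UniProt E9BF75). The test concentration is not given. Values are per cent inhibition. About 68,000 compounds were tested under these conditions; 0.035% (about 24) showed 50% or more at least once.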
Mtb heat-shock: 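Assay on Mycobacterium tuberculosis, filed only as a heat shock assay from Cornell; the read-out is not stated. The concentration is filed as 10 mM, unlikely as a test dose, so the dose is not known. Higher reads as stronger inhibition (inferred: compounds with an IC50 in retests scored well above the rest). About 69,000 compounds were tested under these conditions; 1.4% (about 930) showed 50% or more at least once.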

With CCS(=O)(=O)N1CCN(C(C)c2ccccc2OC)CC1 (stereo not shown) the screen gave LdMetRS: 7.971%; Mtb heat-shock: 7.498%. Cn1cc(C(=O)Nc2cccc(-c3ccc4c(c3)CCO4)n2)ccc1=O read LdMetRS: 6.301%; Mtb heat-shock: -13.43%. With [H][C@@]12CN(c3ccccn3)C[C@]1([H])N(Cc1ccccc1OC)C(=O)O2 the screen gave Mtb heat-shock: -27.92%. Cc1nnc([C@@H]2CC[C@@H]3[C@@H](CCN3S(=O)(=O)c3cccnc3)O2)o1 read LdMetRS: 13.8%. With COCCNC(=O)[C@H]1C[C@@H]2CCN(Cc3ccncc3)C[C@H]2O1 the screen gave LdMetRS: 10.68%. CCc1cc(N2CCCNCC2)n2nc(C)c(C)c2n1 gave LdMetRS: 17.56%; Mtb heat-shock: 20.23%.

Result for COc1cccc(C(O)C(=O)N(C)CCc2ccccn2)c1 (stereo not shown) was LdMetRS: 7.988%; Mtb heat-shock: -24.51%. CC1CCN(Cn2nc(-c3ccc(F)cc3)oc2=O)CC1 gave LdMetRS: 4.453%; Mtb heat-shock: 3.447%. With CCN(CC)CC(=O)N1CCCCC1c1nc(C)cs1 (stereo not shown) the screen gave LdMetRS: 19.67%; Mtb heat-shock: -3.097%. With CC(c1cc(F)ccc1F)N(C)Cc1nc2c(cnn2C)c(=O)[nH]1 (stereo not shown) the screen gave LdMetRS: -6.032%; Mtb heat-shock: 0.504%. Cc1ccc(NC(=O)N2CCOC(C)(c3cnn(C)c3)C2)c(C)c1 (stereo not shown) gave LdMetRS: 9.589%; Mtb heat-shock: -11.27%. CN(C)Cc1nn(C)c2c1CN(C(=O)Nc1ccc(F)cc1)C2 read LdMetRS: 14.98%; Mtb heat-shock: -12.58%.

For CCN(CC1CCCO1)C(=O)Nc1cc(C(N)=O)ccc1OC (stereo not shown) the result was LdMetRS: 12.78%; Mtb heat-shock: -14.92%. For COCC1CCCN(CCCc2cccc(OC)c2)C1 (stereo not shown) the result was LdMetRS: 1.736%; Mtb heat-shock: -13.21%. With CN(C)c1nc(-c2ccncc2)nc2c1CCN(C(=O)[C@H](N)CO)C2 the screen gave LdMetRS: 7.527%; Mtb heat-shock: -20.02%. CCCNC(=O)CCC(=O)Nc1ccc(-n2cncn2)c(F)c1 gave LdMetRS: 4.082%; Mtb heat-shock: 4.205%. COCC1CC2(CCN(Cc3cnn(C)c3)CC2)CN1c1ncccn1.O=C(O)C(F)(F)F.O=C(O)C(F)(F)F (stereo not shown) read Mtb heat-shock: -12.09%. For Cn1cnc2c1C(COCC1CC1)CN(Cc1ccc3c(c1)OCO3)C2.O=C(O)C(F)(F)F.O=C(O)C(F)(F)F (stereo not shown) the result was Mtb heat-shock: -6.982%.

CC(C)c1nnc(CN2CCCC(c3cc(C(N)=O)[nH]n3)C2)o1 (stereo not shown) read LdMetRS: 15%; Mtb heat-shock: -12.29%. CCc1nc(CN(C)Cc2ncc(-c3cccs3)o2)cs1 read LdMetRS: 9.948%; Mtb heat-shock: 8.969%. Result for O=C(CCc1nccs1)N1CCC(C(=O)O)(c2ccccc2)CC1 was LdMetRS: 13.04%; Mtb heat-shock: 1.657%. With Cc1cnn(CC2CCCN2C(=O)c2c(C)noc2C)c1 (stereo not shown) the screen gave LdMetRS: 17.71%; Mtb heat-shock: 0.7399%. For CCN1CCn2c(C)cnc2C12CCN(C(=O)N(C)C)CC2 the result was LdMetRS: 16.35%. For CC(C)c1noc([C@@H]2Cc3[nH]cnc3CN2C(=O)Nc2ccccc2)n1 the result was LdMetRS: 1.099%; Mtb heat-shock: -5.735%.

For COc1cccc(S(=O)(=O)NC(=O)CCC2CCCO2)c1 (stereo not shown) the result was LdMetRS: 21.78%; Mtb heat-shock: 15.02%. For CSc1nccc(N2CCN(C)C3(CCNC(=O)CC3)C2)n1 (stereo not shown) the result was LdMetRS: 17.56%; Mtb heat-shock: 6.304%. Result for NC(=O)C1CCCN1Cc1cccc(NC(=O)c2cc(Cl)cc(Cl)c2)c1 (stereo not shown) was LdMetRS: 4.244%; Mtb heat-shock: 8.878%.

For reference, 2 entries once more:

* Cc1ccc(NC(=O)N2CCOC(C)(c3cnn(C)c3)C2)c(C)c1 (stereo not shown) | LdMetRS: 9.589%; Mtb heat-shock: -11.27%
* Cn1cnc2c1C(COCC1CC1)CN(Cc1ccc3c(c1)OCO3)C2.O=C(O)C(F)(F)F.O=C(O)C(F)(F)F (stereo not shown) | Mtb heat-shock: -6.982%